Measured data: PubChem BioAssay AID1259308 (NCATS, 2017)
Shown is a random part of about 59,000 deposited reagents. Over the whole deposit, about 1,510 (2.6%) are marked active. 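Calls use total luciferase alone and ignore viability, so some active siRNAs may act by altering cell number.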 A number with no mark means an inactive call. Reagents against one gene are numbered here.

Test: 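Candidate targets for better recombinant protein yield in mammalian cells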 (primary screen)
Cells: human HEK293 embryonic kidney cells stably expressing firefly luciferase (HEK-CMV-Luc2-Hygro)
Knock-down reagent: single siRNA against human genes, 0.8 pmol siRNA per well
Duration: 72 h
Measured: 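Reporter luminescence and viable-cell signal on separate replicate plates, given as percent of non-targeting control and median/MAD z-scores, plus per-cell luciferase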
Reading the numbers: total luciferase, z-score and total luciferase, % of control: higher = more reporter protein produced; luciferase per cell, z-score: higher = more reporter output per viable cell; viable cells, % of control: higher = more viable cells
Active means: 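An siRNA counts as active if its total luciferase robust z-score exceeds 3; genes with two or more such siRNAs out of three were retested with fresh siRNAs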
Calls: active = raised luciferase; inactive = no rise

gene,siRNA no.,"total luciferase, z-score","total luciferase, % of control","luciferase per cell, z-score","viable cells, % of control"
MFSD6L,1,-0.161,78.7,-0.018,88.3
MFSD6L,2,0.618,94.2,0.699,87.6
MFSD6L,3,-0.449,73,-0.403,90.6
FNDC5,1,-2.14,39.2,-1.66,67.8
FNDC5,2,-0.326,75.4,0.345,76.9
FNDC5,3,0.317,88.2,0.789,80.1
SFXN2,1,0.344,88.7,0.632,84
SFXN2,2,0.462,91.1,0.429,90.9
SFXN2,3,-0.953,62.9,-0.585,82
RTL1,1,2.39,129,1.14,107
RTL1,2,-0.379,74.3,-0.285,89.6
RTL1,3,0.605,93.9,0.121,102
KLHL23,1,-0.698,68,-0.227,80.7
KLHL23,2,0.126,84.4,0.511,82.4
KLHL23,3,-0.335,75.2,-0.339,91.9
STRIP2,1,0.341,88.7,0.207,93.8
STRIP2,2,-0.495,72,-0.285,86.8
STRIP2,3,-0.122,79.5,-0.467,100
DLK1,1,1.09,104,0.637,97.9
DLK1,2,-0.533,71.3,0.289,73.8
DLK1,3,0.266,87.2,-0.371,107
MCF2L,1,-1.01,61.7,-1.68,107
MCF2L,2,0.679,95.4,0.988,82.2
MCF2L,3,0.273,87.3,0.675,81.7
SPMIP9,1,-0.244,77,-0.905,109
SPMIP9,2,0.285,87.5,0.315,90
SPMIP9,3,-1.6,50.1,-1.09,74.6
FPR3,1,-0.559,70.8,-0.544,91.3
FPR3,2,0.104,84,0.397,84.5
FPR3,3,-1.35,55,-1.08,81.7

Reformatted: 5 of the entries above.
MCF2L #3 | total luciferase, z-score: 0.273; total luciferase, % of control: 87.3; luciferase per cell, z-score: 0.675; viable cells, % of control: 81.7
SPMIP9 #1 | total luciferase, z-score: -0.244; total luciferase, % of control: 77; luciferase per cell, z-score: -0.905; viable cells, % of control: 109
SPMIP9 #2 | total luciferase, z-score: 0.285; total luciferase, % of control: 87.5; luciferase per cell, z-score: 0.315; viable cells, % of control: 90
SPMIP9 #3 | total luciferase, z-score: -1.6; total luciferase, % of control: 50.1; luciferase per cell, z-score: -1.09; viable cells, % of control: 74.6
FPR3 #1 | total luciferase, z-score: -0.559; total luciferase, % of control: 70.8; luciferase per cell, z-score: -0.544; viable cells, % of control: 91.3

The results go on:
gene,siRNA no.,"total luciferase, z-score","total luciferase, % of control","luciferase per cell, z-score","viable cells, % of control"
CIMAP1D,1,0.334,88.5,0.408,88.8
CIMAP1D,2,-0.615,69.7,-0.475,88.2
CIMAP1D,3,0.393,89.7,1.55,66.6
FAM50B,1,-0.986,62.3,-0.783,85.5
FAM50B,2,-1.19,58.1,-1.71,102
FAM50B,3,-0.461,72.7,-1.12,109
CDYL2,1,0.162,85.1,-0.4,106
CDYL2,2,-0.167,78.6,-0.0597,89.2
CDYL2,3,0.465,91.1,0.373,92.3
FNDC8,1,-0.193,78,3.39,35.7
FNDC8,2,0.074,83.4,-0.0331,94
FNDC8,3,0.484,91.5,0.253,95.7
STPG4,1,-0.321,75.5,-0.00701,84.5
STPG4,2,-0.469,72.6,-0.273,87.1
STPG4,3,0.453,90.9,1.31,71.9
LOC400940,1,-0.00789,81.7,0.351,83.3
LOC400940,2,3.56 (active),153,2.88,79.9
LOC400940,3,-0.371,74.5,-0.0181,83.6
SEC62,1,0.546,92.7,0.295,95.9
SEC62,2,0.677,95.4,1.06,80.5
SEC62,3,1.26,107,1.83,73.7
POGZ,1,0.109,84,-0.148,97.6
POGZ,2,1.82,118,1.12,98.3
POGZ,3,0.676,95.3,2.02,62.6
DCTPP1,1,0.854,98.9,0.808,89.3
DCTPP1,2,-1.01,61.8,-1.29,97
DCTPP1,3,-0.478,72.4,-0.824,100
